Results reported in patent US20140050720A1, “ULTRALONG COMPLEMENTARITY DETERMINING REGIONS AND USES THEREOF” (THE SCRIPPS RESEARCH INSTITUTE, priority 2012, published 2014).
These are yes or no findings as the source states them, for the method shown. Some entries that bind do so weakly or less than the wild type. Sequences can lack the tags named with a protein.

Target: T1, CXCR1 expressed on U2OS cells (DiscoveRx Cat#93-0226C3) (UniProt P25024)
T1 sequence (looked up): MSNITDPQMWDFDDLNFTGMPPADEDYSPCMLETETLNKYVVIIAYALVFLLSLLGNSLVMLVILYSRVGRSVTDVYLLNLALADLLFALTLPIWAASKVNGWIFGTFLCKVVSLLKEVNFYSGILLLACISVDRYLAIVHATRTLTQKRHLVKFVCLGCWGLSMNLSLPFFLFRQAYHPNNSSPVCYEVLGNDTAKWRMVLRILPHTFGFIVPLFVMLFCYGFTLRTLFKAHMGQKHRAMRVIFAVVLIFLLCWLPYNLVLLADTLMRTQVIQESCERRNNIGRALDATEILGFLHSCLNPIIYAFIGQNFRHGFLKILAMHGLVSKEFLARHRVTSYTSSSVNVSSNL
Assay: flow cytometry, ratio of median fluorescence of CXCR1-U2OS against parental U2OS cells

binding: binds
B1: BLV1H12-IL8 fusion protein (antibody)
VH: QVQLRESGPSLVKPSQTLSLTCTASGFSLSDKAVGWVRQAPGKALEWLGSIDTGGNTGYNPGLKSRLSITKDNSKSQVSLSVSSVTTEDSATYYCTSVHQETKKYQSPRSAKELRCQCIKTYSKPFHPKFIKELRVIESGPHCANTEIIVKLSDGRELCLDPKENWVQRVVEKFLKRAENSGSGSYTYNYEWHVDVWGQGLLVTV
light: QAVLNQPSSVSGSLGQRVSITCSGSSSNVGNGYVSWYQLIPGSAPRTLIYGDTSRASGVPDRFSGSRSGNTATLTISSLQAEDEADYFCASAEDSSSNAVFGSGTTLTVLGQPKSPPSVTLFPPSTEELNGNKATLVCLISDFYPGSVTVVWKADGSTITRNVETTRASKQSNSKYAASSYLSLTSSDWKSKGSYSCEVTHEGSTVTKTVKPSECS
